Our source for the binding values is US20250250358A1.

By UniProt entry, the sequences of proteins in these tests, tags left out. Residues count along the entry.
UniProt Q6UXX9, residues 22-243: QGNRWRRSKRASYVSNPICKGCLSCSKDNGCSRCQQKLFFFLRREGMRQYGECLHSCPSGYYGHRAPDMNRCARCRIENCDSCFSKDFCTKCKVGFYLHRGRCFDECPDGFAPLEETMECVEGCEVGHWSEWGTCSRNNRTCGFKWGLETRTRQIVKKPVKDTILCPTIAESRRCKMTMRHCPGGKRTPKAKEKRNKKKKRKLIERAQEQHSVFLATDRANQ

Assay [1] addresses T1, RNF43 (Extracellular domain)-Fc fusion (UniProt Q68DV7).
T1 sequence (biotinylated (site not stated), looked up): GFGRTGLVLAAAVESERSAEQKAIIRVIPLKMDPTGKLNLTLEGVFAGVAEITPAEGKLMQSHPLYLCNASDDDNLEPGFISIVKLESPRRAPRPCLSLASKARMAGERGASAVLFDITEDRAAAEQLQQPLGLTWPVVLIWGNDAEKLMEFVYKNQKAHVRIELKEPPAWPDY
In words: BLI, RNF43-Fc tips loaded first with R0 or R3. A general note: BLI is a label-free optical method that tracks binding on a fibre tip over time.

Assay [2] has as its target T1, RNF43 (Extracellular domain)-Fc fusion. In words: BLI, RNF43-Fc tips loaded first with 50 nM R0 Fab or 50 nM R3 Fab, then 100 nM RSPO2 (together with 50 nM of the Fab).

Results are given in words; binding and its absence hold for the method and conditions named. Some binding calls cover weakened binding; strength is not graded here. Where a sequence is shown, tags or fusion partners need not be part of it.

Turning to “R-spondin 2 (from UniProt Q6UXX9 22-243) (ligand)”, the binding result in assay [1] and in assay [2] was “binds” each time.
